# In US20220119521A1:
# These are yes or no findings as the source states them, for the method shown. Some entries that bind do so weakly or less than the wild type.
# Tests used:
# [1] = biological target: human MAdCAM (Mucosal addressin cell adhesion molecule), full length (human) (UniProt Q13477); assay: FACS, CHO cells expressing human MAdCAM
# [2] = biological target: human MAdCAM (Mucosal addressin cell adhesion molecule), full length (human) (UniProt Q13477); assay: IHC, human tissue
# [3] = biological target: human MAdCAM (Mucosal addressin cell adhesion molecule), full length (human) (UniProt Q13477); assay: IHC, human ileum sections
# [4] = biological target: human MAdCAM (Mucosal addressin cell adhesion molecule), full length (human) (UniProt Q13477); assay: hybridoma sub-clone screening (assays described below in the filing)
# [5] = biological target: human MAdCAM (Mucosal addressin cell adhesion molecule), full length (human) (UniProt Q13477); assay: binding to CHO cells expressing human MAdCAM
Binder,binding [1],binding [2],binding [3],binding [4],binding [5]
"anti-MAdCAM monoclonal antibody 7.26.4 (antibody, human IgG2, kappa, V domains shown) VH: QVQLVQSGAEVKKPGASVKVSCEASGYTFTSYGIDWVRQAPGQGLEWMGWISVYSGNTNYAQKLQGRVTMSTDTSTSTAYMELRSLRSDDTAVYYCAREGSSSSGDYYYGMDVWGQGTTVTVSS VL: DIVMTQTPLSLSVTPGQPASISCKSNQSLLYSDGKTYLFWYLQKPGQPPQLLIYEVSNRFSGVPDRFSGSGSGTDFTLKISRVEAEDVGVYYCMQSIQLPWTFGQGTKVEIKR",binds,binds,binds,binds,–
"modified anti-MAdCAM monoclonal antibody 7.26.4-mod (antibody, human IgG2, kappa, V domains shown) VH: QVQLVQSGAEVKKPGASVKVSCEASGYTFTSYGIDWVRQAPGQGLEWMGWISVYSGNTNYAQKLQGRVTMSTDTSTSTAYMELRSLRSDDTAVYYCAREGSSSSGDYYYGMDVWGQGTTVTVSS VL: DIVMTQTPLSLSVTPGQPASISCKSSQSLLYSDGKTYLFWYLQKPGQPPQLLIYEVSNRFSGVPDRFSGSGSGTDFTLKISRVEAEDVGVYYCMQSIQLPWTFGQGTKVEIKR",–,–,–,–,binds
"anti-MAdCAM monoclonal antibody 6.22.2 (antibody, human IgG4, kappa, V domains shown) VH: QVQLVESGGGVVQPGRSLRLSCAASGHTFSSDGMHWVRQAPGKGLEWVAIIWYDGSNKYYADSVKGRFTISRDNSKNTLYLQMNSLRAEDTAVYYCARDPGYYYGMDVWGQGTTVTVSS VL: EIVLTQSPDFQSVTPKEKVTITCRASQRIGSSLHWYQQKPDQSPKLLIKYASQSFSGVPSRFSGSGSGTNFTLTINGLEAEDAATYYCHQSGRLPLTFGGGTKVEIKR",binds,binds,binds,binds,–
"anti-MAdCAM monoclonal antibody 6.34.2 (antibody, human IgG4, kappa, V domains shown) VH: QVQLVESGGGVVQPGRSLRLSCAASGFTFSSYGMHWVRQAPGKGLEWVAVISNDGNNKYYADSVKGRFTISRDNSKNTLYLQMNSLSAEDTAVYYCARDSTAITYYYYGMDVWGQGTTVTVSS VL: DIQMTQSPSSLSASVGDRVTITCRASQNISSYLNWFQQKPGKAPKLLIYAASGLKRGVPSRFSGSGSGTDFTLTIRTLQPDDFATYSCHQSYSLPFTFGPGTKVDIKR",binds,binds,binds,binds,–
"anti-MAdCAM monoclonal antibody 6.14.2 (antibody, human IgG4, kappa, V domains shown) VH: EVQLLESGGGLVQPGGSLRLSCAASGLTFNNSAMTWVRQAPGKGLEWVSTTSGSGGTTYYADSVKGRFTISRDSPKNTLYLQMNSLRAEDTAVYYCAARGYSYGTTPYEYWGQGTLVTVSS VL: DIQMTQSPSSLSASVGDRVTITCRASRSISSYLNWYQQKPGKAPKVLIFFVSSLQSGVPSRFSGSGSGTDFTLTISSLQPEDFATYYCQQNYIPPITFGQGTRLEIRR",binds,binds,binds,binds,–

# The remaining lines, values ahead:
binding [1],binding [2],binding [3],binding [4],binding [5],Binder
binds,binds,binds,binds,–,"anti-MAdCAM monoclonal antibody 6.77.1 (antibody, human IgG4, kappa, V domains shown) VH: EVQLVESGGGLVKPGGSLRLSCAASGFTFSSYSMNWVRQAPGKGLEWVSSISSSSSYIYYADSVKGRFTISRDNAKNSLYLQMNSLRAEDTAVYYCARDGYSSGWSYYYYYGMDVWGQGTTVTVSS VL: DIVMTQTPLSLSVTPGQPASISCNSSQSLLLSDGKTYLNWYLQKPGQPPQLLIYEVSNRFSGVPDRFSGSGSGTDFTLKISRVEAEDVGVYSCMQSIQLMCSFGQGTKLEIKR"
–,–,–,–,binds,"modified anti-MAdCAM monoclonal antibody 6.77.1-mod (antibody, human IgG2, kappa, V domains shown) VH: EVQLVESGGGLVKPGGSLRLSCAASGFTFSSYSMNWVRQAPGKGLEWVSSISSSSSYIYYADSVKGRFTISRDNAKNSLYLQMNSLRAEDTAVYYCARDGYSSGWSYYYYYGMDVWGQGTTVTVSS VL: DIVMTQTPLSLSVTPGQPASISCKSSQSLLLSDGKTYLNWYLQKPGQPPQLLIYEVSNRFSGVPDRFSGSGSGTDFTLKISRVEAEDVGVYSCMQSIQLMSSFGQGTKLEIKR"
–,–,–,–,binds,"modified anti-MAdCAM monoclonal antibody 6.34.2-mod (antibody, human IgG2, kappa, V domains shown) VH: QVQLVESGGGVVQPGRSLRLSCAASGFTFSSYGMHWVRQAPGKGLEWVAVISNDGNNKYYADSVKGRFTISRDNSKNTLYLQMNSLRAEDTAVYYCARDSTAITYYYYGMDVWGQGTTVTVSS VL: DIQMTQSPSSLSASVGDRVTITCRASQSISSYLNWYQQKPGKAPKLLIYAASGLKRGVPSRFSGSGSGTDFTLTISSLQPEDFATYYCHQSYSLPFTFGPGTKVDIKR"
binds,binds,binds,binds,–,"anti-MAdCAM monoclonal antibody 6.73.2 (antibody, human IgG4, kappa, V domains shown) VH: EVQLLESGGDLVQPGGSLRLSCAASGFTFRSYAMNWVRQAPGKGLEWVSVISGRGGTTYYADSVKGRFTISRDNSKNTLYLQMNSLRAEDAAVYYCAKIAVAGEGLYYYYGMDVWGQGTTVTVSS VL: DIQMTQSPSSLSASVGDRVTFTCRASQNITNYLNWYQQKPGKAPKLLIYAASSLPRGVPSRFRGSGSGTDFTLTISSLQPEDFATYYCQQSYSNPPECGFGQGTTLDIKR"
